Experimental data from PubChem BioAssay AID2685 (National Center for Advancing Translational Sciences (NCATS), 2010).
This is one part of the list. Shown are side measurements of this screen, not its main read-out; they come without a call. The list favours compounds with an active or inconclusive main result. Words in brackets tell the shape of the fitted curve; partial curves, single points and poor fits give uncertain potencies.

Test: qHTS Assay for Lipid Storage Modulators in Drosophila S3 Cells;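 for cell number change: cells counted by Cell Tracker Red CMTPX staining in the red channel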
Conditions: BODIPY lipid droplet fluorescence, 18-24 h; for cell number change: measured here: cell count max response, cells fed with added oleic acid
Summary of the method: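 Drosophila S3 cells got compounds at several concentrations plus oleic acid (400 uM solution). Laser-scanning cytometry with 488 nm excitation read lipid droplets at 500-530 nm and cells at 575-640 nm. Percent activity was relative to 20 uM Triacsin C.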

[1] = measured here: lipid fluorescence (Fed channel) AC50, cells fed with added oleic acid
[2] = measured here: cell number channel AC50, cells fed with added oleic acid

Row | Structure (SMILES) | cell number change | AC50 [1] | AC50 [2]
1 | CCN(CC(=O)Nc1ccc(S(=O)(=O)N2CCCC2)cc1)CC(=O)Nc1cccc(OC)c1 | -14.6% | 4.11 µM [falling, single point] | –
2 | O=C(CCCl)N1CCN(c2nc(-c3ccccc3)cs2)CC1 | -13.2% | – | –
3 | CC(=O)c1c(C)[nH]c(C(=O)CSc2nnc(-c3ccco3)o2)c1C | 17% | 0.0731 µM [rising, full curve, poor fit] | –
4 | COc1ccc(CN=C2Nc3ccccc3CS2)cc1 | -15.3% | 2.91 µM [falling, single point] | –
5 | CC(C)Oc1ccc(S(=O)(=O)N2CCOCC2)cc1NC(=O)C1=COCCO1 | 56.9% | 6.51 µM [falling, single point] | 6.51 µM [falling, single point]
6 | Cc1oc(-c2ccc(Cl)cc2)nc1CN1CCCC(C(=O)NC2CC2)C1 (configuration not stated) | 2.8% | 3.26 µM [rising, single point] | –
7 | CC(=O)c1c(C)[nH]c(C(=O)CSc2nnc(-c3ccc(Cl)cc3)n2CC2CCCO2)c1C (configuration not stated) | – | 0.411 µM [rising, partial curve, poor fit] | 0.461 µM [rising, full curve]
8 | Cc1cnccc1CN(C)Cc1cn(C)nc1-c1cccc(Cl)c1 | 15.9% | – | –
9 | CNC(=S)N(CCc1ccc(OC)c(OC)c1)Cc1cc2c(C)cc(C)cc2[nH]c1=O | -32.4% | 9.2 µM [rising, partial curve] | –
10 | CCCN1CCN(CCCNC(=O)c2cc3c(=O)n(C)c4ccccc4c3n2C)CC1 | 3.1% | 6.51 µM [rising, partial curve] | –
11 | CC1CCCN(C(=O)c2cccc(S(=O)(=O)N3CCCc4ccccc43)c2)C1 (configuration not stated) | 29.9% | 6.51 µM [rising, single point] | –
12 | COc1ccc(C2OC34CCCCC3C(C#N)(C#N)C2(C#N)C(=N)O4)cc1 (configuration not stated) | 23.9% | 23.1 µM [rising, single point] | –
13 | O=C(N/N=C/c1ccoc1)c1ccc(Cl)cc1Cl | – | 11.6 µM [falling, single point] | 3.26 µM [rising, single point]
14 | COc1ccccc1CCNC(=O)CSc1nnc2ccc(-c3cccnc3)nn12 | – | – | 0.00461 µM [falling, full curve, poor fit]
15 | C/C(=N\NC(=O)c1cc(C)oc1C)c1ccc(N2CCOCC2)cc1 | – | – | 6.51 µM [rising, single point]
16 | O=C(CC1Oc2ccccc2NC1=O)NCc1ccccc1 (configuration not stated) | – | 0.731 µM [falling, single point] | 0.651 µM [falling, single point]
17 | CCOCCCNC(=O)CC1Oc2ccc(C)cc2NC1=O (configuration not stated) | -1.76% | 10.3 µM [falling, partial curve] | 0.58 µM [falling, full curve, poor fit]
18 | Cc1cc(C)c(S(=O)(=O)N2CCCOC2CNC(=O)C(=O)NCCC2=CCCCC2)c(C)c1 (configuration not stated) | -3.61% | 0.651 µM [falling, single point] | –
19 | Clc1cccc(-c2ccc3ncnc(NCc4cccs4)c3c2)c1 | 18.2% | 20.6 µM [rising, partial curve, poor fit] | –

2 compounds drawn at random from those above:
Row | Structure (SMILES) | cell number change | AC50 [1] | AC50 [2]
18 | Cc1cc(C)c(S(=O)(=O)N2CCCOC2CNC(=O)C(=O)NCCC2=CCCCC2)c(C)c1 (configuration not stated) | -3.61% | 0.651 µM [falling, single point] | –
9 | CNC(=S)N(CCc1ccc(OC)c(OC)c1)Cc1cc2c(C)cc(C)cc2[nH]c1=O | -32.4% | 9.2 µM [rising, partial curve] | –

Continuation:

Row | Structure (SMILES) | cell number change | AC50 [1] | AC50 [2]
20 | O=C(N/N=C/c1cc(Cl)cc([N+](=O)[O-])c1O)C(O)(c1ccccc1)c1ccccc1 | 0.702% | – | –
21 | COc1ccc(OC)c(C(c2nnnn2C2CCCC2)N2CCN(c3ccc(F)cc3)CC2)c1 (configuration not stated) | -4.45% | 6.51 µM [falling, single point] | –
22 | CCOc1ccc(CCNC(=O)CN2C(=O)NC3(CCCCC3C)C2=O)cc1OCC (configuration not stated) | -39.4% | 10.3 µM [falling, partial curve, poor fit] | 8.2 µM [falling, partial curve, poor fit]
23 | Cc1cc(-c2ccc(Cl)cc2)n2nc(N)nc2n1 | 11.8% | 16.4 µM [rising, single point] | –
24 | CCC(=O)Nc1cccc(NC(=O)CSc2nc3c(c(=O)n(C)c(=O)n3C)n2C)c1 | 55.1% | – | 32.6 µM [rising, single point]
25 | O=C1CCc2cc(S(=O)(=O)N3CCN(c4cccc(C(F)(F)F)c4)CC3)ccc2N1 | -42.9% | 20.6 µM [falling, single point] | 20.6 µM [falling, single point]
26 | O=C(O)C1=C[C@H](c2cccs2)C[C@H](OCc2ccc(CO)cc2)O1 | 29.2% | 6.51 µM [rising, partial curve] | –
27 | O=C(c1ccc(F)cc1)C1CCN(C(=O)NC2CCCCC2)CC1 | -24.2% | – | –
28 | Nn1c(Cc2cccc3ccccc23)nnc1SCCOc1ccc(F)cc1 | -3.44% | 3.26 µM [rising, single point] | –
29 | COc1ccccc1C1=NC(c2ccc(F)cc2)N=C1C (configuration not stated) | 22.6% | – | –
30 | O=C(/C=C/c1ccccc1)NC(=S)Nc1ccc2c3c(cccc13)CC2 | 2.01% | 2.91 µM [rising, full curve] | –
31 | Cc1cc(C)c2nc(SCC(=O)Nc3ccc(S(=O)(=O)N4CCCC4)cc3)c(C)cc2c1 | 7.01% | 3.66 µM [rising, partial curve] | –
32 | Cc1cc(C)c2nc(N3CCC(C(=O)NCCCN4CCCCC4)CC3)sc2c1 | -24% | – | 3.26 µM [falling, full curve, poor fit]
33 | COc1ccccc1CNC(=O)C(NS(=O)(=O)c1ccc2c(c1)OCCO2)C(C)C (configuration not stated) | 2.36% | 25.9 µM [falling, single point] | –
34 | CC(C)(C)C1CCc2c(sc(NC(=O)c3cccs3)c2C(=O)N2CCCCC2)C1 (configuration not stated) | -20.7% | – | –
35 | Fc1ccc(-n2nnnc2-c2cnc(-c3cccs3)nc2C(F)(F)F)cc1 | -32.2% | 4.61 µM [falling, full curve, poor fit] | 5.17 µM [falling, full curve, poor fit]
36 | C/C(O)=C(/C=NCC(=O)O)C(=O)Nc1nccs1 | 11.5% | 1.16 µM [rising, full curve, poor fit] | 1.03 µM [rising, full curve, poor fit]
37 | O=C(O)COc1ccccc1/C=N/NC(=O)c1ccc(F)cc1 | -16.6% | – | 0.00517 µM [falling, full curve, poor fit]
